Source: PMC4819177, “The rational search for selective anticancer derivatives of the peptide Trichogin GA IV: a multi-technique biophysical approach” (Scientific Reports, 2016)

Assays:
[1] = Far-UV CD spectroscopy (secondary structure); type: physicochemical; conditions: for R = [θ]222/[θ]208 SDS: CD in 100 mM SDS; for R = [θ]222/[θ]208 MeOH: CD in MeOH
[2] = tested on: HeLa cells; experiment: EPR of TOAC-labelled peptides with intact HeLa cells; type: binding, human; conditions: membrane-bound peptide, 125 μM, 25 nmol per million cells, 293 K
From the text: (§1) EPR spectroscopy has been performed on TOAC-labelled analogues to determine the amount of peptide bound to the membrane and to evaluate the peptide dynamics. […] We studied all analogues in buffer solution and in POPC SUV, the same systems used for CD spectroscopy; four selected analogues (see cytotoxicity assay paragraph) were also studied interacting with a suspension of intact cells of the three cell lines. […] Additionally, from the simulations, we determined the value of the Azz hyperfine component that gives an indication of the polarity of the environment. All EPR spectra and simulations are reported in the Supplementary Information (Figs S1–S4), while in Fig. 4, we report an overview of the experiments. In the top part of the figure, we show the spectra of [TOAC^1] TG in buffer solution (blue), in SUV (red), and interacting with T67 cells (magenta). In the bottom part, we show the spectra of the other three peptides, representative of the different degrees of biological activity, interacting with intact T67 cells. […]
(§2) Methanol, 99.9%, spectrophotometric grade, [4-(2-hydroxyethyl)-1-piperazinyl]ethanesulfonic acid (HEPES), and PBS buffer (NaCl 137 mM, KCl 2.7 mM, Na2HPO4 10 mM, KH2PO4 1.8 mM, pH 7.4) were purchased from Sigma-Aldrich. […] The spectra were recorded after 15–20 minutes of incubation of the peptide to the cell suspension. […]

[3] = tested on: T67 cells; experiment: EPR of TOAC-labelled peptides with intact T67 cells; type: binding, human; conditions: membrane-bound peptide, 125 μM, 25 nmol per million cells, 293 K
From the text: as §1, §2

[4] = tested on: HDF cells; experiment: EPR of TOAC-labelled peptides with intact HDF cells; type: binding, human; conditions: membrane-bound peptide, 125 μM, 25 nmol per million cells, 293 K
From the text: as §1, §2

Row | Molecule | R = [θ]222/[θ]208 SDS [1] | R = [θ]222/[θ]208 MeOH [1] | Correlation time, τ HeLa [2] [ns] | Correlation time, τ T67 [3] [ns] | Correlation time, τ HDF [4] [ns]
1 | CCCCCCCC(=O)NC(C)(C)C(=O)NCC(=O)N[C@@H](CC(C)C)C(=O)NC(C)(C)C(=O)NCC(=O)NCC(=O)N[C@@H](CC(C)C)C(=O)NC(C)(C)C(=O)NCC(=O)N[C@H](C(=O)N[C@H](CO)CC(C)C)[C@@H](C)CC [TG, 1-Oct-Aib-Gly-Leu-Aib-Gly-Gly-Leu-Aib-Gly-Ile-Lol, reference compound] (Octanoyl-[Aib]GL[Aib]GGL[Aib]GI[Leu(ol)]) | 0.5 | 0.2 | – | – | –
2 | CCCCCCCC(=O)NC(C)(C)C(=O)N[C@@H](CCCNC(=N)N)C(=O)N[C@@H](CC(C)C)C(=O)NC(C)(C)C(=O)NCC(=O)NCC(=O)N[C@@H](CC(C)C)C(=O)NC(C)(C)C(=O)NCC(=O)N[C@H](C(=O)N[C@H](CO)CC(C)C)[C@@H](C)CC [[Arg^2] TG, Oct-URLUGGLUGI-Lol] (Octanoyl-[Aib]RL[Aib]GGL[Aib]GI[Leu(ol)]) | 0.6 | 0.4 | – | – | –
3 | CCCCCCCC(=O)NC1(C(=O)NCC(=O)N[C@@H](CC(C)C)C(=O)NC(C)(C)C(=O)NCC(=O)NCC(=O)N[C@@H](CC(C)C)C(=O)NC(C)(C)C(=O)N[C@@H](CCCNC(=N)N)C(=O)N[C@H](C(=O)N[C@H](CO)CC(C)C)[C@@H](C)CC)CC(C)(C)N([O])C(C)(C)C1 [[TOAC^1, Arg^9] TG, Oct-XGLUGGLURI-Lol] (Octanoyl-[TOAC]GL[Aib]GGL[Aib]RI[Leu(ol)]) | 0.6 | 0.4 | – | – | –
4 | CCCCCCCC(=O)NC1(C(=O)NCC(=O)N[C@@H](CC(C)C)C(=O)NC2(C(=O)NCC(=O)NCC(=O)N[C@@H](CC(C)C)C(=O)NC(C)(C)C(=O)NCC(=O)N[C@H](C(=O)N[C@H](CO)CC(C)C)[C@@H](C)CC)CCNCC2)CC(C)(C)N([O])C(C)(C)C1 [[TOAC^1, Api^4] TG, Oct-XGLZGGLUGI-Lol] (Octanoyl-[TOAC]GL[Api]GGL[Aib]GI[Leu(ol)]) | 0.6 | 0.5 | 12 | 12 | 12
5 | CCCCCCCC(=O)NC(C)(C)C(=O)NCC(=O)N[C@@H](CC(C)C)C(=O)NC(C)(C)C(=O)NCC(=O)N[C@@H](CCCCN)C(=O)N[C@@H](CC(C)C)C(=O)NC(C)(C)C(=O)NCC(=O)N[C@H](C(=O)N[C@H](CO)CC(C)C)[C@@H](C)CC [[Lys^6] TG, Oct-UGLUGKLUGI-Lol] | 0.6 | 0.4 | – | – | –
6 | CCCCCCCC(=O)NC(C)(C)C(=O)NCC(=O)N[C@@H](CC(C)C)C(=O)NC(C)(C)C(=O)NCC(=O)NCC(=O)N[C@@H](CC(C)C)C(=O)NC1(C(=O)NCC(=O)N[C@H](C(=O)N[C@H](CO)CC(C)C)[C@@H](C)CC)CCNCC1 [[Api^8] TG, Oct-UGLUGGLZGI-Lol] (Octanoyl-[Aib]GL[Aib]GGL[Api]GI[Leu(ol)]) | 0.4 | 0.4 | – | – | –
7 | CCCCCCCC(=O)NC1(C(=O)N[C@@H](CCCNC(=N)N)C(=O)N[C@@H](CC(C)C)C(=O)NC(C)(C)C(=O)NCC(=O)NCC(=O)N[C@@H](CC(C)C)C(=O)NC(C)(C)C(=O)NCC(=O)N[C@H](C(=O)N[C@H](CO)CC(C)C)[C@@H](C)CC)CC(C)(C)N([O])C(C)(C)C1 [[TOAC^1, Arg^2] TG, Oct-XRLUGGLUGI-Lol] (Octanoyl-[TOAC]RL[Aib]GGL[Aib]GI[Leu(ol)]) | 0.6 | 0.3 | – | – | –
8 | Oct-UGLLGGLUGI-Lol [[Leu^4] TG] | 0.6 | 0.3 | – | – | –
9 | Oct-XGLUGGLLGI-Lol [[TOAC^1, Leu^8] TG] | 0.7 | 0.2 | – | – | –
10 | CCCCCCCC(=O)NC(C)(C)C(=O)NCC(=O)N[C@@H](CC(C)C)C(=O)NC(C)(C)C(=O)N[C@@H](CCCCN)C(=O)N[C@@H](CCCCN)C(=O)N[C@@H](CC(C)C)C(=O)NC(C)(C)C(=O)NCC(=O)N[C@H](C(=O)N[C@H](CO)CC(C)C)[C@@H](C)CC [[Lys^5,6] TG, Oct-UGLUKKLUGI-Lol] | 0.5 | 0.5 | – | – | –
11 | CCCCCCCC(=O)NC1(C(=O)NCC(=O)N[C@@H](CC(C)C)C(=O)NC(C)(C)C(=O)NCC(=O)NCC(=O)N[C@@H](CC(C)C)C(=O)NC(C)(C)C(=O)NCC(=O)N[C@H](C(=O)N[C@H](CO)CC(C)C)[C@@H](C)CC)CC(C)(C)N([O])C(C)(C)C1 [[TOAC^1] TG, Oct-XGLUGGLUGI-Lol] (Octanoyl-[TOAC]GL[Aib]GGL[Aib]GI[Leu(ol)]) | 0.6 | 0.3 | 12 | 9 | 9
12 | CCCCCCCC(=O)NC1(C(=O)NCC(=O)N[C@@H](CC(C)C)C(=O)NC(C)(C)C(=O)N[C@@H](CCCCN)C(=O)N[C@@H](CCCCN)C(=O)N[C@@H](CC(C)C)C(=O)NC(C)(C)C(=O)NCC(=O)N[C@H](C(=O)N[C@H](CO)CC(C)C)[C@@H](C)CC)CC(C)(C)N([O])C(C)(C)C1 [[TOAC^1, Lys^5,6] TG, Oct-XGLUKKLUGI-Lol] | 0.8 | 0.6 | – | – | –

Square brackets hold non-standard residues; d marks the D form. Peptide text beside a SMILES is read from it. * marks the point of attachment. TOAC = CC1(C)CC(N)(C(=O)O)CC(C)(C)N1[O]; Leu(ol) = CC(C)C[C@H](N)CO; Octanoyl = CCCCCCCC(=O)*; Api = NC1(C(=O)O)CCNCC1; Aib = CC(C)(N)C(=O)O
